The source of these data is the supplement of paper PMC10849652.

Sequences of proteins named here, by UniProt entry; tags and fusion partners are left off. A change or cut given only in a name is not applied to a line headed by its entry.
UniProt Q9NTX5: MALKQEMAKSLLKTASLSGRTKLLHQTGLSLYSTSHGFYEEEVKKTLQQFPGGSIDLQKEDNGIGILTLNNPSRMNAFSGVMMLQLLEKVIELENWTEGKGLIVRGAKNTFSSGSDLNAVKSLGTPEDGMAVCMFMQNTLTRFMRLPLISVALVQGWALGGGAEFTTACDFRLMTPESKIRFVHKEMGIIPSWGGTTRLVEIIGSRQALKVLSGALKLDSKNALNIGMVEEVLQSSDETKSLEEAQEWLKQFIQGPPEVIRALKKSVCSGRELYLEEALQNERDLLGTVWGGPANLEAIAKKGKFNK
UniProt Q5JPH6: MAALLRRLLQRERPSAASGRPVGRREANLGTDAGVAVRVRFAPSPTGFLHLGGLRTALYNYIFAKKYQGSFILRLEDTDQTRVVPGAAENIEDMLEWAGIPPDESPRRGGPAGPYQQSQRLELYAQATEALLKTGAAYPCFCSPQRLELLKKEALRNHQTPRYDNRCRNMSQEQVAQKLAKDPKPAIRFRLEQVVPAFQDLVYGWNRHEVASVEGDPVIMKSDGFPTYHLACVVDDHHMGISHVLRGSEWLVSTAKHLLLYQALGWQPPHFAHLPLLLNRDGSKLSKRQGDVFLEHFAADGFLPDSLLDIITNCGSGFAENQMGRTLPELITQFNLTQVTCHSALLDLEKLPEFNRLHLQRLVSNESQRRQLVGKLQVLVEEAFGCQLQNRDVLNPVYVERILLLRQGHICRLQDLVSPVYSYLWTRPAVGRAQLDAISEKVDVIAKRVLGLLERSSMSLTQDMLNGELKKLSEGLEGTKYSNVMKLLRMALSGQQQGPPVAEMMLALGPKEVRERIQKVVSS
UniProt O60762: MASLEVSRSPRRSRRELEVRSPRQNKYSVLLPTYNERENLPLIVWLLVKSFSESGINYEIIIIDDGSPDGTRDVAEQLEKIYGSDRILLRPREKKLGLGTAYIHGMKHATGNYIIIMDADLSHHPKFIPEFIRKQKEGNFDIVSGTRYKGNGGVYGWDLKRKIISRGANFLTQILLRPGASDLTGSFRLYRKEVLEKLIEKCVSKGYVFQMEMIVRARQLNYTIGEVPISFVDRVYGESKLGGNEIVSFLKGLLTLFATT
UniProt O60869: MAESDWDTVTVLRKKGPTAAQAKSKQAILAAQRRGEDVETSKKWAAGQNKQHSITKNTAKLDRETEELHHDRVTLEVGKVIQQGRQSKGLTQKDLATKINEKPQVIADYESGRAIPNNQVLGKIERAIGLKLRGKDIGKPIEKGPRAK
UniProt O75190: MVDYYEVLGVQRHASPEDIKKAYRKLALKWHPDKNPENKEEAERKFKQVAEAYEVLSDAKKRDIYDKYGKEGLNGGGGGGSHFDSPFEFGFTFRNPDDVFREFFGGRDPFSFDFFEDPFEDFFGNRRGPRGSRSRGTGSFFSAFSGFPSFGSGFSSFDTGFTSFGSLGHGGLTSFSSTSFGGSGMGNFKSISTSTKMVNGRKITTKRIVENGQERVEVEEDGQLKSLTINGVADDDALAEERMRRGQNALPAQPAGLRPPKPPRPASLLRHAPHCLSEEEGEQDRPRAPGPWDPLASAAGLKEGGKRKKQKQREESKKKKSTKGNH
UniProt Q15125: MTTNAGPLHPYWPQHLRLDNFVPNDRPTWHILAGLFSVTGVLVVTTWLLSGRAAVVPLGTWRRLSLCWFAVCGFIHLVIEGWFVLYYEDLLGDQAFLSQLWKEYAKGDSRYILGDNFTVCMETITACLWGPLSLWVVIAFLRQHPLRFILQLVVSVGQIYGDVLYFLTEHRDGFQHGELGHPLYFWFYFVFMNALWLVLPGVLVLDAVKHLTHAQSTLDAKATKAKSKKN
UniProt Q8WWZ3: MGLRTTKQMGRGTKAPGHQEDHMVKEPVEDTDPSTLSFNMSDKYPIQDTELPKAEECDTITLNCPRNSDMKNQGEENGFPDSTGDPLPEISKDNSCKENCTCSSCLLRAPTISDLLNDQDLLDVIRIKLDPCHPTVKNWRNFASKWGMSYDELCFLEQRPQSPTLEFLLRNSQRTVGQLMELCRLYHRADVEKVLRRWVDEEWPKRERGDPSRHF
UniProt Q9UNI6, whole entry, looked up: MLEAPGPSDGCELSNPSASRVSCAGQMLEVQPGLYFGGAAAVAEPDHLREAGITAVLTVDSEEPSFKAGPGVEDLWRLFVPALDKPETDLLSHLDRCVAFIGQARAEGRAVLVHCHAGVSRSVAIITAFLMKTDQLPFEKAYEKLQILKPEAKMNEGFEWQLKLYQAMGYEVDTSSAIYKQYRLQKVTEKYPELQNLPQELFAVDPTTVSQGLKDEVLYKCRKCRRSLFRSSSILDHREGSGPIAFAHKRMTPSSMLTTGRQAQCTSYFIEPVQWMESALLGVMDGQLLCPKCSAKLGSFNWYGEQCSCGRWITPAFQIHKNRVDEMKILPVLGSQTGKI
UniProt Q9BZG8: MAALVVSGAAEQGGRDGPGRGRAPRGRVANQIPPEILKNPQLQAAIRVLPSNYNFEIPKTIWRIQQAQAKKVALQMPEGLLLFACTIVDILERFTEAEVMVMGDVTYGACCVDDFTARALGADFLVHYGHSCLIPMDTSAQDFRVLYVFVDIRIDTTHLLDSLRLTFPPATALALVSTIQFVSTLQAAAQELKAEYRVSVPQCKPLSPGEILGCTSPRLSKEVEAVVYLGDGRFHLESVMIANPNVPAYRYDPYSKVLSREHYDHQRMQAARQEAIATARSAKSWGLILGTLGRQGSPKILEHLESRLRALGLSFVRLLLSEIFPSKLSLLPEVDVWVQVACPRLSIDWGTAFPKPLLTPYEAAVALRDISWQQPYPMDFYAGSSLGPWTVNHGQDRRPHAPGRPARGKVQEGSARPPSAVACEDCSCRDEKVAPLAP
UniProt Q14126: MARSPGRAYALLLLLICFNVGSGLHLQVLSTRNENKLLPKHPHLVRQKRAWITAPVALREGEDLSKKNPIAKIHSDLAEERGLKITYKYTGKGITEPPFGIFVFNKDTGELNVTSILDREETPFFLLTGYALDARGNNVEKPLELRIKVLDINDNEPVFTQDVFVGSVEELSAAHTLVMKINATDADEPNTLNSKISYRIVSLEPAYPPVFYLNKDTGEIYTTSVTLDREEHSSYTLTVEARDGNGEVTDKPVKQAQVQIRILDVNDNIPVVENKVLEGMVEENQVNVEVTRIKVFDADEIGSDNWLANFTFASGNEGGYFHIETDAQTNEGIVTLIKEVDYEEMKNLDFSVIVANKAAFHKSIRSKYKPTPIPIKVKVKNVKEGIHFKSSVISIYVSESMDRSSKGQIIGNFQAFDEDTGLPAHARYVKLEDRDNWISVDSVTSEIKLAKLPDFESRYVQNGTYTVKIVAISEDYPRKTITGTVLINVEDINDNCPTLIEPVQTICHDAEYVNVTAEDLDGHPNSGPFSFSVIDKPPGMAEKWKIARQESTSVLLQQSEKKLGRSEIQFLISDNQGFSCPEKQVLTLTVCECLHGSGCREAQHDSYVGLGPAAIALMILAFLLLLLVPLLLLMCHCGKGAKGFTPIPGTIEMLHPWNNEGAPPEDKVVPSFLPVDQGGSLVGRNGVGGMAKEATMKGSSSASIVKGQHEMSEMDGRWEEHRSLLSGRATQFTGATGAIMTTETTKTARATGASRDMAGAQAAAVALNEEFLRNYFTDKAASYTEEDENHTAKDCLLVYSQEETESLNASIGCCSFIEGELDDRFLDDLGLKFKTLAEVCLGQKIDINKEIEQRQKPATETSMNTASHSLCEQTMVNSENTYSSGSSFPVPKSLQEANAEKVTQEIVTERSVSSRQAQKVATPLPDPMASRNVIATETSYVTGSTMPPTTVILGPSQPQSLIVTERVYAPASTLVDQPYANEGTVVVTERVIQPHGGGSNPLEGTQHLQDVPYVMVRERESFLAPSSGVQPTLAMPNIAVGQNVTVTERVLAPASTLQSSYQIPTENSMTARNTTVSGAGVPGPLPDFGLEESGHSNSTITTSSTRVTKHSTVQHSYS
UniProt P42126: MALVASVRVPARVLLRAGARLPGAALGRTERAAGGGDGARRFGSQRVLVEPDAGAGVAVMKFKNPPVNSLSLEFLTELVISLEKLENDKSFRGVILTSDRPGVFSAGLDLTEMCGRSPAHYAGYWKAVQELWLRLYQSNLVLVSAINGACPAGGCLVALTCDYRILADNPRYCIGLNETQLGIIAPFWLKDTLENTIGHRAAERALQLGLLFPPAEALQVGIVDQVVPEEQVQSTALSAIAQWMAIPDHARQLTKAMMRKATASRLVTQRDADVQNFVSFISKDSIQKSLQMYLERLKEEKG
UniProt Q9Y295: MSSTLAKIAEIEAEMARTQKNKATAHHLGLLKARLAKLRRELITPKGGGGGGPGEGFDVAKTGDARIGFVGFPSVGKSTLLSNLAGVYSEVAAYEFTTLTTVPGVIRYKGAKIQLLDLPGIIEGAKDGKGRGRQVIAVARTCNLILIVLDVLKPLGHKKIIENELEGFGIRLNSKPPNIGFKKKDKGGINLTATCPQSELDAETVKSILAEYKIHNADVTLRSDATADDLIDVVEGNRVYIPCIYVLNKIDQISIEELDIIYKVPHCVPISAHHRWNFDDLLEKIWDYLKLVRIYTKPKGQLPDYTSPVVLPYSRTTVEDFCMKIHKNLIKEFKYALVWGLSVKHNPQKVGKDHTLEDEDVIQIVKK
UniProt Q02487, whole entry, looked up: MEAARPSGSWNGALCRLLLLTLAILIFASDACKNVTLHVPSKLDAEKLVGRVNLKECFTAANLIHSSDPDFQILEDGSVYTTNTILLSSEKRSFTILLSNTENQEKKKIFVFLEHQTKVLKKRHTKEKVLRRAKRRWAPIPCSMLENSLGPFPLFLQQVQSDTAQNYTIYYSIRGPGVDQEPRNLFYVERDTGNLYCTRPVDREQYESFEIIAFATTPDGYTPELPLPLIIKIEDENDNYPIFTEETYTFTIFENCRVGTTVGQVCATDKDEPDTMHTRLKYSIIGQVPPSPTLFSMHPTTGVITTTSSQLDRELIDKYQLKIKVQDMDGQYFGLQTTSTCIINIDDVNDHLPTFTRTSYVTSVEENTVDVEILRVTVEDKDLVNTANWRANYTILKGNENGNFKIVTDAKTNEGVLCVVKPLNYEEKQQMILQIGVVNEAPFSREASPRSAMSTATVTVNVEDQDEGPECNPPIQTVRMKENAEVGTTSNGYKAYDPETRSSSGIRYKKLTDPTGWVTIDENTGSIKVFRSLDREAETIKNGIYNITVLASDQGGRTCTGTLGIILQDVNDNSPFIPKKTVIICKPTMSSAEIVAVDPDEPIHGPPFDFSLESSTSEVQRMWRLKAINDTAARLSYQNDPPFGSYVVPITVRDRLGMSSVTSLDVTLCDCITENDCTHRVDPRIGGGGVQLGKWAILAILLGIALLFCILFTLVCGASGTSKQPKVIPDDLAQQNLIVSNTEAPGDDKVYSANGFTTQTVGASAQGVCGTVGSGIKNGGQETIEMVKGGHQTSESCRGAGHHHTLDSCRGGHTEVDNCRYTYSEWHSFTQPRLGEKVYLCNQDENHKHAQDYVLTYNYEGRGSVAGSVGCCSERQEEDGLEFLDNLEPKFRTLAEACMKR
UniProt Q9Y6G9, whole entry, looked up: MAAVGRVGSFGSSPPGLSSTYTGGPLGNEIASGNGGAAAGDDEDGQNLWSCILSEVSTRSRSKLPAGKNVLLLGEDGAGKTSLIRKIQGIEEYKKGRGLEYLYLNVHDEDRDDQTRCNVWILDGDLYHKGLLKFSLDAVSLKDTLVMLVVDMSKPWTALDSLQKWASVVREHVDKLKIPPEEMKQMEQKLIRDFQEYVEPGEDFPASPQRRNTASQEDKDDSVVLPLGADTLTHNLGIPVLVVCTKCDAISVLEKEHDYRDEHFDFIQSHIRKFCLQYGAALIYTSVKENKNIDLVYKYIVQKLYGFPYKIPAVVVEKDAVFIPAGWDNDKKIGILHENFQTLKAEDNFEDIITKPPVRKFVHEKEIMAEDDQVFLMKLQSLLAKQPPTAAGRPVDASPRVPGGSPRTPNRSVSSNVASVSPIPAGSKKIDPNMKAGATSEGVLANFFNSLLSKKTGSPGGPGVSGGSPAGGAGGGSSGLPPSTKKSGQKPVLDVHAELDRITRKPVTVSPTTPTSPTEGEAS
UniProt Q16610: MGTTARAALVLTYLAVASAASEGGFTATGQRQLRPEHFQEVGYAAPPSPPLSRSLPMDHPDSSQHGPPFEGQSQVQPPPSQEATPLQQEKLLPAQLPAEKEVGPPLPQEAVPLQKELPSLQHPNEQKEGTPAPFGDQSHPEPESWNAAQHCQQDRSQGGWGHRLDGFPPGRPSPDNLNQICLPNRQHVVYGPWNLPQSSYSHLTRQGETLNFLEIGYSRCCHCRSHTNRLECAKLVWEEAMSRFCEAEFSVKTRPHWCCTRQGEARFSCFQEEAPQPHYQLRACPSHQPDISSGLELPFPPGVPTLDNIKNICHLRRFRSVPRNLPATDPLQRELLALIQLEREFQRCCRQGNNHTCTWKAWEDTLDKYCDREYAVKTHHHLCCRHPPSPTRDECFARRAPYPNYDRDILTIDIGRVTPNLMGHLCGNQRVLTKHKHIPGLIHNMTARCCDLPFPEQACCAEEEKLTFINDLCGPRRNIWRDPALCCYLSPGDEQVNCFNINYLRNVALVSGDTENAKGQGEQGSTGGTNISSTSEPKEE

The list shows a part of the results. Residues, ends and D or L forms follow the SMILES beside them. *: point of attachment. Cbz = O=C(OCc1ccccc1)*

Compound in the assay: CC(C)C[C@@H](C=O)NC(=O)[C@H](CC(C)C)NC(=O)[C@H](CC(C)C)NC(=O)OCc1ccccc1
Kind of assay: log2 fold change, soluble protein after heating vs DMSO (PISA); higher = thermal stabilisation; K562 cells, 10 uM, 30 min; active = over 0.2 and 3.5 SD of the protein, either way, in both replicates (recomputed). The gist of the method:
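K562 cells at 2×10^6 cells/mL were treated with 10 μM compound for 30 min. Aliquots were heated for 3 min across 48°C-58°C, pooled, and extracted in PBS with 0.5% NP-40 at 4°C; soluble protein was the supernatant after 21,000xg for 90 min. Soluble protein was quantified by TMTpro 16plex LC-MS/MS with channel sums equalised, and reported as log2 fold change in thermal stability against DMSO controls, with values from duplicates.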
Regarding ECHDC1 (UniProt Q9NTX5), the log2 fold change is inactive: 0.

As for DNAJA3 (UniProt Q96EY1), the log2 fold change is inactive: 0.082.

With DPH7 (UniProt Q9BTV6), the log2 fold change was inactive: 0.087.

As to DPM3 isoform 2 (UniProt Q9P2X0), the log2 fold change is inactive: -0.084.

Regarding EARS2 isoform 2 (UniProt Q5JPH6), the log2 fold change was inactive: -0.001.

For DST (UniProt Q03001), the log2 fold change is inactive: 0.062.

In the case of DPM1 (UniProt O60762), the log2 fold change was inactive: 0.041.

With ECE1 (UniProt P42892), the log2 fold change was inactive: 0.058.

Take EDF1 (UniProt O60869): the log2 fold change was inactive: -0.035.

Take DPY19L4 (UniProt Q7Z388): the log2 fold change was inactive: 0.031.

Take DNAJB6 (UniProt O75190): the log2 fold change is inactive: 0.041.

Consider EDEM1 (UniProt Q92611), for which the log2 fold change is inactive: 0.068.

On to DNAJB4 (UniProt Q9UDY4), for which the log2 fold change was inactive: 0.033.

Turning to EBP (UniProt Q15125), the log2 fold change is inactive: -0.063.

For the target DUT (UniProt P33316), the log2 fold change is inactive: 0.001.

Take DPF2 (UniProt Q92785): the log2 fold change was inactive: 0.04.

EDARADD (UniProt Q8WWZ3): the log2 fold change is inactive: -0.061.

For the target DUS4L (UniProt O95620), the log2 fold change is inactive: -0.021.

As to DR1 (UniProt Q01658), the log2 fold change is inactive: -0.024.

With DUSP12 (UniProt Q9UNI6), the log2 fold change was inactive: -0.023.

On to EAF1 (UniProt Q96JC9), for which the log2 fold change was inactive: 0.017.

Take DPH1 (UniProt Q9BZG8): the log2 fold change is inactive: -0.013.

As for DPY30 (UniProt Q9C005), the log2 fold change was inactive: -0.341.

DNMT1 isoform 2 (UniProt P26358): the log2 fold change was inactive: -0.001.

Consider DNAJC3 (UniProt Q13217), for which the log2 fold change is inactive: -0.003.

For the target DSG2 (UniProt Q14126), the log2 fold change was inactive: 0.01.

Take ECI1 (UniProt P42126): the log2 fold change was inactive: -0.025.

As to DRG1 (UniProt Q9Y295), the log2 fold change was inactive: 0.061.

Turning to DSTN (UniProt P60981), the log2 fold change was inactive: 0.024.

On to DOCK9 isoform 4 (UniProt Q9BZ29), for which the log2 fold change was inactive: 0.147.

For DPH2 (UniProt Q9BQC3), the log2 fold change is inactive: 0.045.

DSC2 (UniProt Q02487): the log2 fold change is inactive: 0.117.

For the target DYNC1LI1 (UniProt Q9Y6G9), the log2 fold change was inactive: 0.024.

In the case of ECM1 isoform 4 (UniProt Q16610), the log2 fold change is inactive: 0.037.
